# The other results are listed elsewhere or left out. Shown are side measurements of this screen, not its main read-out; they come without a call. Most of these compounds were active or inconclusive in the main read-out, so they are no random draw. The note in brackets gives the kind of curve behind each potency; many fits are weak.
# Experiment: qHTS Assay to Find Inhibitors of Chronic Active B-Cell Receptor Signaling
# Conditions: ABC-DLBCL IkBa-CBG/CBR reporter, luminescence ratio (green luciferase fused to IkBa over red control in TMD8 lymphoma cells), 4 h; measured here: CBR red luminescence, cell number
# Summary of the method: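 TMD8 ABC-DLBCL cells carrying doxycycline-inducible green luciferase fused to IkappaBalpha plus unfused red luciferase were exposed to compounds (up to 46 uM) for 4 hrs at 37C. Activity came from the overlap-corrected green/red luminescence ratio.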
row,SMILES,AC50
1,COc1cc(/C=C2/C(=N)N3C(=NC2=O)SN=C3S(C)(=O)=O)ccc1OS(=O)(=O)c1ccccc1,"11.2 µM [rising, partial curve, poor fit]"
2,O=C(O)Cn1cc(/C=c2/sc3nc4ccccc4n3c2=O)c2ccccc21,"1.58 µM [falling, full curve]"
3,COc1cc(/C=C2\C(=N)N3N=C(S(C)(=O)=O)SC3=NC2=O)cc(OC)c1OCCOc1cccc(C)c1,"17.8 µM [rising, partial curve, poor fit]"
4,O=C(O)COc1ccccc1/C=N/NC(=O)CSc1nnc(SCc2cccc3ccccc23)s1,"3.55 µM [falling, partial curve, poor fit]"

# Source: PubChem BioAssay AID493014 (National Center for Advancing Translational Sciences (NCATS), 2011)
